Some entries share one result that the patent states for a list of compounds.
Tested on: thoracic aorta isolated from a rat
Assay: Magnus method: vasodilatory potency on aortic ring, relaxation of Norepinephrine 0.3 μM-induced contraction
Conditions: capsaicin 1 μM, single addition; vasoconstriction induced by 0.3 μM Norepinephrine

COc1cc(CNC(=O)CCCCC=CC(C)C)ccc1O [capsaicin, 8-methyl-N-vanillyl-6-nonenamide]
vascular relaxation rate (%): 7-10%

From patent publication US9480668B2, “Blood flow promoting agent” (KYOWA HAKKO BIO CO., LTD., priority 2012, dated 2016)
